Experimental data taken from paper PMC5379764, “Polynucleotide phosphorylase is implicated in homologous recombination and DNA repair in Escherichia coli”.
The exact form of at least one protein or probe is not confirmed. Weaker means in comparison with the reference protein, sequence or condition of that experiment. For part of these data: At least one verdict was read from the data and is not stated in words by the source. Where a protein sequence is shown, tags need not be part of it.

Experiments:
Experiment in all cases: EMSA
Details in all cases: 50 mM Tris-HCl pH 7.4, 50 mM NaCl, 0.5 mM DTT, 0.025% NP40, 10% glycerol, +/- 2 mM MgCl2 or MnCl2, 50 fmol probe in 10 µl, 20 min at 21 °C, native 5% PAGE at 4 °C, recombinant protein, protein details: His-tag, label: 5'-32P
[1] = biological target: T1, PNPase ΔS1 del622-633 (Escherichia coli) (UniProt P05055)
T1 sequence (looked up, limits assumed): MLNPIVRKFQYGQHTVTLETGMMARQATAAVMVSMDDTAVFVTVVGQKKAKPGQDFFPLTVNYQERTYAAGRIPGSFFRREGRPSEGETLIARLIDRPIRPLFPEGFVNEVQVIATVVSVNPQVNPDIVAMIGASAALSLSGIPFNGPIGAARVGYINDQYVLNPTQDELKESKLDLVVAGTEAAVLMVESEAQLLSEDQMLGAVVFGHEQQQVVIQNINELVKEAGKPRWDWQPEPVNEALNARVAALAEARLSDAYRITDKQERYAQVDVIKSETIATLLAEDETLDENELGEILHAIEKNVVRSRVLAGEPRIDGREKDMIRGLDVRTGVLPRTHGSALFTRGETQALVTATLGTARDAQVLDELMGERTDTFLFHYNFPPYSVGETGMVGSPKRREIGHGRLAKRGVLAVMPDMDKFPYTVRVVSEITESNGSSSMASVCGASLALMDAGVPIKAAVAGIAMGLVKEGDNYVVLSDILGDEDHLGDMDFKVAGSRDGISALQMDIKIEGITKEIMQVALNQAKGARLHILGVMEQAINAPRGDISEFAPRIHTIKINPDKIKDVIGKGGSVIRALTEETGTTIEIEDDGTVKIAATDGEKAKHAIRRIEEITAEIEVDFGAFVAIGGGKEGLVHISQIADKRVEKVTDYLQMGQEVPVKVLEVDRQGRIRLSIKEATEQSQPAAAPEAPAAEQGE

[2] = biological target: T2, PNPase wild type (Escherichia coli) (UniProt P05055)
T2 sequence (looked up, limits assumed): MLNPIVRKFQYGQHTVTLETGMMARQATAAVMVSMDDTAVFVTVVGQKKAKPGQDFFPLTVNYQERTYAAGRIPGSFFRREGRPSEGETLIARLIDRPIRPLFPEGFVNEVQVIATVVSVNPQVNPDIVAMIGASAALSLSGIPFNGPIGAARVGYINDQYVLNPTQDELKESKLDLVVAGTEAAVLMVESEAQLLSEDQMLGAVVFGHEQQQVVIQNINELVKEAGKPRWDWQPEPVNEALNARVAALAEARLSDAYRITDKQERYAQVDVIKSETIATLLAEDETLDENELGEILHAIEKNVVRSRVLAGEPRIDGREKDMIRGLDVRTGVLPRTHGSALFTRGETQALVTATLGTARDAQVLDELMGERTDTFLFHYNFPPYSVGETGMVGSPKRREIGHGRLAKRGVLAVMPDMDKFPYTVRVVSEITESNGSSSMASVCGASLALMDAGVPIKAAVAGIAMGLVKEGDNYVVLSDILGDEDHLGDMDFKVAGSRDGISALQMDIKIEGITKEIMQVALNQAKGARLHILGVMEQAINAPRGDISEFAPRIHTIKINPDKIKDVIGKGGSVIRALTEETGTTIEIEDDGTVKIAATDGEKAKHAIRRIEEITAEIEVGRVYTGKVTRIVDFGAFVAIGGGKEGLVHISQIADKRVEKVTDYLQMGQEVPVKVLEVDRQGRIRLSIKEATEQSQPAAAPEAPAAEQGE

[3] = biological target: T3, PNPase ΔKH del603-615 (Escherichia coli) (UniProt P05055)
T3 sequence (looked up, limits assumed): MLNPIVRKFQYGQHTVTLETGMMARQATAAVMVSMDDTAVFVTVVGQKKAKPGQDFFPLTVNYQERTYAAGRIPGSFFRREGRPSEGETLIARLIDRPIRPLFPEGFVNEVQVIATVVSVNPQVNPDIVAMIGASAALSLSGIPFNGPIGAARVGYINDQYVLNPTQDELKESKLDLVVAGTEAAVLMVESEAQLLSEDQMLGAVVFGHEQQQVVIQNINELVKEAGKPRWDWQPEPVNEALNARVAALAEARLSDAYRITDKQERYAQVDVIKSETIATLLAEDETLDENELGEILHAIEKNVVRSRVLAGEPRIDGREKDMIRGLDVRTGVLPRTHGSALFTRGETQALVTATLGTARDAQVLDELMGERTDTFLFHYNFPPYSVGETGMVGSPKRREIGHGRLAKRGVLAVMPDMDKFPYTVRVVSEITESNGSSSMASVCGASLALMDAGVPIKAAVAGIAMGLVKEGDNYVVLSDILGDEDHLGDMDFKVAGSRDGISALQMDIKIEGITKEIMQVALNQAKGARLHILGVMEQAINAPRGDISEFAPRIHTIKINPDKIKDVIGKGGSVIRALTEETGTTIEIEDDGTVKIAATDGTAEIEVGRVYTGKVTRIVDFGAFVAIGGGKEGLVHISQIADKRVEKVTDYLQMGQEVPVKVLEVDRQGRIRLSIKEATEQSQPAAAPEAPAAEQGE

[4] = biological target: T4, PNPase ΔKHS1 (Escherichia coli) (UniProt P05055)
T4 sequence (looked up, limits assumed): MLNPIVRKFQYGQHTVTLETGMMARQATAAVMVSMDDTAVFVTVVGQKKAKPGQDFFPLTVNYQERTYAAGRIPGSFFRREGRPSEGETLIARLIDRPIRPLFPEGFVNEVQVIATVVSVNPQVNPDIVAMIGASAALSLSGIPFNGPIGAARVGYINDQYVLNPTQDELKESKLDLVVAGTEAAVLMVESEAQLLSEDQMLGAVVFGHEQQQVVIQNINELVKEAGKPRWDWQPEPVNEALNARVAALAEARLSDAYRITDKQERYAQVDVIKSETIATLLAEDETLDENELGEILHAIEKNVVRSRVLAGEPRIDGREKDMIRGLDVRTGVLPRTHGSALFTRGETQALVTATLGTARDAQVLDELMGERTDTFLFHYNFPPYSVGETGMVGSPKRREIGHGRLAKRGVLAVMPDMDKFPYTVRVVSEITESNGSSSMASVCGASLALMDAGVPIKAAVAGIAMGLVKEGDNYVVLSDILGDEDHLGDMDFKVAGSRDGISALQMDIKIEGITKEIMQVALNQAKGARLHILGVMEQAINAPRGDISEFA

[5] = 2 mM MnCl2, seemed improved vs no cation, single-stranded DNA
[6] = no divalent cation, single-stranded DNA
[7] = 2 mM MgCl2, reduced vs no cation
[8] = 2 mM MnCl2, reduced vs no cation

ACTGGACAAATACTCCGACG [DNA02]: binds more weakly [1, 5]; binds more weakly [1, 6]; binds ([2]; 2 mM MgCl2, not reduced by cation, single-stranded DNA). ACTGGACAAATACTCCGACG [DNA02]: binds ([2]; 2 mM MnCl2, not reduced by cation, single-stranded DNA); binds more weakly ([3]; only mildly affected, single-stranded DNA); binds more weakly [4, 5]. ACTGGACAAATACTCCGACG [DNA02]: binds more weakly [4, 6].

ACUGGACAAAUACUCCGAGG [RNA01]: binds more weakly ([1]; no divalent cation); binds more weakly [2, 7]; binds more weakly [2, 8]. ACUGGACAAAUACUCCGAGG [RNA01]: binds ([2]; no divalent cation); binds more weakly ([3]; no divalent cation, milder effect); binds more weakly [4, 7]. ACUGGACAAAUACUCCGAGG [RNA01]: binds more weakly [4, 8]; binds more weakly ([4]; no divalent cation).
